What all share (test): PRISMA enrichment of interactor (LFQ) in peptide spot vs all other peptide spots (log2 fold change); higher = stronger / more specific binding of the interactor to the peptide
The target in one experiment is ANKRD17, O75179. As for the experimental part:
(§1)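 PRISMA: 221 full-length sORF-encoded peptides (3-15 aa), plus SOS1/GLUT1 control peptides, were spot-synthesized on cellulose membranes in triplicate. Membranes were incubated with HEK293T lysate, and bound proteins were identified by LC-MS/MS with LFQ. Enrichment is the log2 fold change versus all other peptide spots; only significant interactors are listed (cutoff c=6, x0=2.8).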

Sequences of proteins named here, by UniProt entry; tags and fusion partners are left off.
CD3EAP, O15446, UniProt O15446, whole entry: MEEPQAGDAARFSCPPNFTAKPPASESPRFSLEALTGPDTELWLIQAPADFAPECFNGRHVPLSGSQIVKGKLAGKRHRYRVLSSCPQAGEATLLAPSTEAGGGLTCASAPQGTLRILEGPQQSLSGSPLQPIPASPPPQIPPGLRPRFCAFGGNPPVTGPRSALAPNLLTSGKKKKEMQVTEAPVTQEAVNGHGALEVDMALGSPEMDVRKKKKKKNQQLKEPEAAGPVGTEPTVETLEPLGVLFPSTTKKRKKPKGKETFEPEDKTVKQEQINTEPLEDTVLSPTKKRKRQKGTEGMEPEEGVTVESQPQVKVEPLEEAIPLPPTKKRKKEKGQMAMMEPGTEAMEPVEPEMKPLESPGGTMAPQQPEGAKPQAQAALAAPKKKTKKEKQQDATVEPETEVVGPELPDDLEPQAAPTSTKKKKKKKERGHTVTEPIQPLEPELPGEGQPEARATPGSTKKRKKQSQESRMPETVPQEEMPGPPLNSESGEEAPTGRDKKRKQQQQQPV
H2AFY, O75367, UniProt O75367, whole entry: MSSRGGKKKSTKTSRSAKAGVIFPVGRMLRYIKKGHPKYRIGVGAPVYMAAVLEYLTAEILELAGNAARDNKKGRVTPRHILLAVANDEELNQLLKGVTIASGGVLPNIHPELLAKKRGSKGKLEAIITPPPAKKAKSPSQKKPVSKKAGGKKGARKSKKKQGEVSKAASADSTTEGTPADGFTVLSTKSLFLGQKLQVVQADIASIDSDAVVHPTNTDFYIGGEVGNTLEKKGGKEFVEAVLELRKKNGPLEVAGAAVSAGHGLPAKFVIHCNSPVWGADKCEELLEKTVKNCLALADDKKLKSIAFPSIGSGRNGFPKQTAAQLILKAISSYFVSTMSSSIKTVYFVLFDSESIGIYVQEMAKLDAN
COA4, Q9NYJ1, UniProt Q9NYJ1, whole entry: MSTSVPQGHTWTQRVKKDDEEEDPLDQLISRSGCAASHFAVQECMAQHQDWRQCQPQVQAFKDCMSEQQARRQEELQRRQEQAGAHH
SRPK1, Q96SB4, UniProt Q96SB4, whole entry: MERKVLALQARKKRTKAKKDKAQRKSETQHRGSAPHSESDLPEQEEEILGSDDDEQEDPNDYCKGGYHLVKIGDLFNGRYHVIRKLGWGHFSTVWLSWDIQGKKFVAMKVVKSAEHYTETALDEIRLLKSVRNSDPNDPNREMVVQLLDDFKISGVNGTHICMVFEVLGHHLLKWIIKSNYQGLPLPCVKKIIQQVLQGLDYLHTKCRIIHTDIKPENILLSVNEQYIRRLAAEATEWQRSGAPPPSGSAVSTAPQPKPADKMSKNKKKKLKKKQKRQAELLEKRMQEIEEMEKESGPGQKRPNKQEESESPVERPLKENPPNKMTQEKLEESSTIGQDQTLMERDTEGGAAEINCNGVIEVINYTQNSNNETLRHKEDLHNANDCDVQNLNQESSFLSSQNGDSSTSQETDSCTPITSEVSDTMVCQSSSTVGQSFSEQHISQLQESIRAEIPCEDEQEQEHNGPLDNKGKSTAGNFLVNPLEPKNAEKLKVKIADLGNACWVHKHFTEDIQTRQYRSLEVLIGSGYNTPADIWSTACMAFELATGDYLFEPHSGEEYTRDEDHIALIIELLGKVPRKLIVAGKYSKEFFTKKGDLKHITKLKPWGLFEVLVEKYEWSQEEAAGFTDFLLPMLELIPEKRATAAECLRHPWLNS
SRSF1, Q07955, UniProt Q07955, whole entry: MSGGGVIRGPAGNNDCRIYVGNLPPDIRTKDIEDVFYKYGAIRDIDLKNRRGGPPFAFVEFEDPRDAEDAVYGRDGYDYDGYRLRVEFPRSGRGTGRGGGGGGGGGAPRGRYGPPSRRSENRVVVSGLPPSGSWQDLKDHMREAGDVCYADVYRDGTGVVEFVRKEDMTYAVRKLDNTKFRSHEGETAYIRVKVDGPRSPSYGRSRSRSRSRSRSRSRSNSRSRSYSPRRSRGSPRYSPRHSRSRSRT
SRSF9, Q13242, UniProt Q13242, whole entry: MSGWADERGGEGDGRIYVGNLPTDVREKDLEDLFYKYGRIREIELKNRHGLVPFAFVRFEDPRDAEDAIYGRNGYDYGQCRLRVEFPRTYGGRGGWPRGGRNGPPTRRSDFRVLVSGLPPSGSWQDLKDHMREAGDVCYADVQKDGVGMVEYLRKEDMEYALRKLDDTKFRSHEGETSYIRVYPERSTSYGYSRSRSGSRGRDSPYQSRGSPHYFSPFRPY

The target in another experiment is AZU1, P20160. How it is done:
as §1

The next experiment concerns the target CALU, O43852. As for the experimental part:
as §1

The target in another experiment is CD3EAP, O15446. How it is done:
as §1

The next experiment addresses ELL, P55199. As for the experimental part:
as §1

For a further experiment, the target named is EXO1, Q9UQ84. As for the experimental part:
as §1

Another experiment concerns the target H2AFY, O75367. How it is done:
as §1

The target in a further experiment is MCRIP2, Q9BUT9. As for the experimental part:
as §1

Another experiment concerns the target RNF5, Q99942. How it is done:
as §1

For a further experiment, the target named is SCO1, O75880. As for the experimental part: as §1
The target of the next experiment is ANP32A, P39687. As for the experimental part:
as §1

A further experiment has as its target ANP32B, Q92688. How it is done: as §1
In another experiment the target is ANP32E, Q9BTT0. How it is done:
as §1

The next experiment addresses ASCC2, Q9H1I8. How it is done:
as §1

The target in a further experiment is CDK11B, P21127. How it is done: as §1
Another experiment concerns the target CNPY2, Q9Y2B0. As for the experimental part: as §1
The target of a further experiment is COA4, Q9NYJ1. As for the experimental part:
as §1

The target in a further experiment is DAP3, P51398. How it is done: as §1
Another experiment addresses EIF6, P56537. How it is done:
as §1

The next experiment concerns the target FLII, Q13045. As for the experimental part:
as §1

The target in the next experiment is GRB2, P62993. How it is done:
as §1

A further experiment deals with HLA-C. How it is done:
as §1

Another experiment concerns the target HTATSF1, O43719. As for the experimental part:
as §1

In another experiment the target is MRPS31, Q92665. How it is done:
as §1

A further experiment concerns the target PAF1, Q8N7H5. As for the experimental part: as §1
In a further experiment the target is PRPF38B, Q5VTL8. As for the experimental part: as §1
The target of a further experiment is PTCD3, Q96EY7. As for the experimental part: as §1
In another experiment the target is RNH1, P13489. As for the experimental part:
as §1

Another experiment addresses SMAP, O00193. As for the experimental part: as §1
In the next experiment the target is SNX9, Q9Y5X1. How it is done:
as §1

A further experiment deals with SRPK1, Q96SB4. As for the experimental part:
as §1

Another experiment deals with SRSF1, Q07955. As for the experimental part:
as §1

For another experiment, the target named is SRSF10, O75494. As for the experimental part: as §1
The next experiment addresses SRSF2, Q01130. How it is done:
as §1

The target of the next experiment is SRSF5, Q13243. As for the experimental part: as §1
The next experiment has as its target SRSF6, Q13247. How it is done:
as §1

In a further experiment the target is SRSF7, Q16629. As for the experimental part: as §1
A further experiment deals with SRSF9, Q13242. How it is done:
as §1

In a further experiment the target is SUPT5H, O00267. How it is done: as §1

Some of the results follow. Only hits are listed; about a third recur on repeated control peptides.

Consider MYRGSPTACETQAAA [COA4], for which the “PRISMA enrichment of interactor (log2)” value with ANKRD17, O75179 came out at 12.2; with AZU1, P20160, 4.5; with CALU, O43852, 7.28; in the experiment with CD3EAP, O15446, 5.08; in the experiment with ELL, P55199, 6; with EXO1, Q9UQ84, 6.6. The “PRISMA enrichment of interactor (log2)” value with H2AFY, O75367 turned out to be 5.06; with MCRIP2, Q9BUT9, 4; with RNF5, Q99942, 5.32; with SCO1, O75880 it was 5.23.
As to MCEGRERERRAPQR [UGP2], the “PRISMA enrichment of interactor (log2)” value was determined as 5.77 in the experiment with ANP32A, P39687; 6.48 in the experiment with ANP32B, Q92688; 6.27 with ANP32E, Q9BTT0; 5.14 with ASCC2, Q9H1I8; 4.56 in the experiment with CD3EAP, O15446; 5.51 with CDK11B, P21127. The “PRISMA enrichment of interactor (log2)” value with CNPY2, Q9Y2B0 was 4.08; with COA4, Q9NYJ1, 5.86; with DAP3, P51398 it was 5.17; with EIF6, P56537, 5.47; with FLII, Q13045 it was 4.73; with GRB2, P62993, 4.8. The “PRISMA enrichment of interactor (log2)” value with HLA-C came out at 5.23; with HTATSF1, O43719, 6.51; in the experiment with MRPS31, Q92665, 5.45; in the experiment with PAF1, Q8N7H5, 5.68; with PRPF38B, Q5VTL8, 5.21; with PTCD3, Q96EY7 it was 5.33. The “PRISMA enrichment of interactor (log2)” value in the experiment with RNH1, P13489 is 4.14; in the experiment with SMAP, O00193, 4.5; in the experiment with SNX9, Q9Y5X1, 4.93; with SRPK1, Q96SB4, 5.44; with SRSF1, Q07955, 7.33; with SRSF10, O75494, 5.14. Moreover, the “PRISMA enrichment of interactor (log2)” value amounted to 5.78 with SRSF2, Q01130; 5.63 with SRSF5, Q13243; 6.22 with SRSF6, Q13247; 6.28 with SRSF7, Q16629; 7.19 in the experiment with SRSF9, Q13242; 5.85 with SUPT5H, O00267.

The record behind these values is the supplement of paper PMC10032668.
